± gives the standard deviation of the averaged measurements. Only a part is listed here, and it is no random draw. Most values lie at the level of the controls, where differences are scatter.

The chains behind the UniProt entries cited, without tags or fusion partners. Where a name states a change or a piece, a line headed by the entry shows the natural chain unless it says otherwise.
UniProt Q9NZM4: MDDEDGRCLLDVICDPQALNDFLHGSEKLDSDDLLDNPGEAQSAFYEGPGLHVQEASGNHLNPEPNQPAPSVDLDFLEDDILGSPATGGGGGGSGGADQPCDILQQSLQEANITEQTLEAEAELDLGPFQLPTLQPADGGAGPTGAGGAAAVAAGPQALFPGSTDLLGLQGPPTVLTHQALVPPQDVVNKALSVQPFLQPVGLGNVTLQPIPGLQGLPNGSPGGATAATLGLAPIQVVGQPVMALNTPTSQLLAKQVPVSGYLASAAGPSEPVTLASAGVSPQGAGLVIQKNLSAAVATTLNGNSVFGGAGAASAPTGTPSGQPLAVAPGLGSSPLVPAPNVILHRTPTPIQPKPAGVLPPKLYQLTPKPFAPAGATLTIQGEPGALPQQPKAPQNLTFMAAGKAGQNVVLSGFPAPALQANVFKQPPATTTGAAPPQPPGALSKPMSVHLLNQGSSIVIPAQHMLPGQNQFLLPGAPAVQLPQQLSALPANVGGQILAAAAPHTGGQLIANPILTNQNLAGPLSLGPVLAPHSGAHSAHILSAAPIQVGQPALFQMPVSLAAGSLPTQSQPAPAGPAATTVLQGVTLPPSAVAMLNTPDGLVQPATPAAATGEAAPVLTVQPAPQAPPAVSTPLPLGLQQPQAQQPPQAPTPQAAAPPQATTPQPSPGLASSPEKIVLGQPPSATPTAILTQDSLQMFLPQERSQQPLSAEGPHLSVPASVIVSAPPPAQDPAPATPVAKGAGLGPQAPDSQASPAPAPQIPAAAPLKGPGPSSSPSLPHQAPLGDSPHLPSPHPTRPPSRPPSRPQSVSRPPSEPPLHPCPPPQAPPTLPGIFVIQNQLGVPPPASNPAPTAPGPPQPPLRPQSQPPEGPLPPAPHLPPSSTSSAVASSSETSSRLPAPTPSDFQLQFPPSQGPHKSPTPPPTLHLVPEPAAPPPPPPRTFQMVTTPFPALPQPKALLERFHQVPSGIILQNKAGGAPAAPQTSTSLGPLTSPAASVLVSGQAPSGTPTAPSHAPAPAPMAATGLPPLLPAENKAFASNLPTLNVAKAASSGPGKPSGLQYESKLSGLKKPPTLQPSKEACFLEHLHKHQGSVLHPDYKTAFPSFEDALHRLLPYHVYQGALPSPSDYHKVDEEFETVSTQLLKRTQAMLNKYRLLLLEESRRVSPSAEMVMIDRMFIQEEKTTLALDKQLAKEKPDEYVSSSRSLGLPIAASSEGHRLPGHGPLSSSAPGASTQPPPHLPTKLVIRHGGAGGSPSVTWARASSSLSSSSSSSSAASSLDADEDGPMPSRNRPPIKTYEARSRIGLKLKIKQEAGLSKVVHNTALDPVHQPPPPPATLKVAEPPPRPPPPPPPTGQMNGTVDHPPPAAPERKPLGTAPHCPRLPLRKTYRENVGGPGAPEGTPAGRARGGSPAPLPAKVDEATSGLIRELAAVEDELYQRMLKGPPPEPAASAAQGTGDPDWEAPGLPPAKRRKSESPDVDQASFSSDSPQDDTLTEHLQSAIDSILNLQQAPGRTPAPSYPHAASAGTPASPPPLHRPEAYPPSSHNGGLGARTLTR
UniProt Q96T83: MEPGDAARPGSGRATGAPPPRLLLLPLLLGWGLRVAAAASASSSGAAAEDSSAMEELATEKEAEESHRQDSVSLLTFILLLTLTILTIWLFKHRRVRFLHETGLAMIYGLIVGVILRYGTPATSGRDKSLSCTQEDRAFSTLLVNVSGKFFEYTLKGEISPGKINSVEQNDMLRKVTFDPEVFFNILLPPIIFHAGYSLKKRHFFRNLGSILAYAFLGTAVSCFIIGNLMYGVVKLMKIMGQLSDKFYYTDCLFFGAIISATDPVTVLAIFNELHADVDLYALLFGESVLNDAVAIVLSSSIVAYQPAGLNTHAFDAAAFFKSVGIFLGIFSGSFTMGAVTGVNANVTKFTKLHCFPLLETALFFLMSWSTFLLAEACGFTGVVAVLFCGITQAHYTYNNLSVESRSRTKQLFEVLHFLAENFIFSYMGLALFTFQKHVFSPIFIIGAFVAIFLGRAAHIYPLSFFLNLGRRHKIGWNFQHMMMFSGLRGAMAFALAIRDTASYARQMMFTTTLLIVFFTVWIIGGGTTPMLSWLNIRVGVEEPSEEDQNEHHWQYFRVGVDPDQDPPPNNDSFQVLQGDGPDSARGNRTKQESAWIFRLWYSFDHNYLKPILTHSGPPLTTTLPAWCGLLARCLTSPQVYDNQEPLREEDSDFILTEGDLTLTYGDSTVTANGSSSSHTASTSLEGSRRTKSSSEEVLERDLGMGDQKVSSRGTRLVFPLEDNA
UniProt Q15345: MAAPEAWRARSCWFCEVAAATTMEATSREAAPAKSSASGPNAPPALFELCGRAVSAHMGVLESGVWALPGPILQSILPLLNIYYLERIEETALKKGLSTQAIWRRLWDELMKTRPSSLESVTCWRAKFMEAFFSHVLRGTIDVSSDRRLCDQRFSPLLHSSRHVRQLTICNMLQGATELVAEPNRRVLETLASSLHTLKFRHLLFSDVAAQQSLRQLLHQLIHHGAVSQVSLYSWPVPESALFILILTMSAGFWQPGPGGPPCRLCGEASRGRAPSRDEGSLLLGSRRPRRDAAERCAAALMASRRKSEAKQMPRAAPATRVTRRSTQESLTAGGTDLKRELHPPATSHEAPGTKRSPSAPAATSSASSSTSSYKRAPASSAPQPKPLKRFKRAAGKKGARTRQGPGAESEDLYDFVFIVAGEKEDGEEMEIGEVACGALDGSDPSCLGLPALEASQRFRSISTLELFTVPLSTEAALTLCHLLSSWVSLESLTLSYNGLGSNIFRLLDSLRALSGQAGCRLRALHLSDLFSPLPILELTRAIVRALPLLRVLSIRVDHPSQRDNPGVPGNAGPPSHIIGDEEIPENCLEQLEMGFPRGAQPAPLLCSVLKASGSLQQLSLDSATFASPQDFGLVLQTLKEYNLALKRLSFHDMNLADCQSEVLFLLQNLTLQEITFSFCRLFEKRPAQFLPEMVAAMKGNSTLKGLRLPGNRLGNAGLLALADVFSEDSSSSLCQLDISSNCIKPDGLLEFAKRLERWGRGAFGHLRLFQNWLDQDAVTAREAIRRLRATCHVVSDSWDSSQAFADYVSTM
UniProt Q9Y4K1: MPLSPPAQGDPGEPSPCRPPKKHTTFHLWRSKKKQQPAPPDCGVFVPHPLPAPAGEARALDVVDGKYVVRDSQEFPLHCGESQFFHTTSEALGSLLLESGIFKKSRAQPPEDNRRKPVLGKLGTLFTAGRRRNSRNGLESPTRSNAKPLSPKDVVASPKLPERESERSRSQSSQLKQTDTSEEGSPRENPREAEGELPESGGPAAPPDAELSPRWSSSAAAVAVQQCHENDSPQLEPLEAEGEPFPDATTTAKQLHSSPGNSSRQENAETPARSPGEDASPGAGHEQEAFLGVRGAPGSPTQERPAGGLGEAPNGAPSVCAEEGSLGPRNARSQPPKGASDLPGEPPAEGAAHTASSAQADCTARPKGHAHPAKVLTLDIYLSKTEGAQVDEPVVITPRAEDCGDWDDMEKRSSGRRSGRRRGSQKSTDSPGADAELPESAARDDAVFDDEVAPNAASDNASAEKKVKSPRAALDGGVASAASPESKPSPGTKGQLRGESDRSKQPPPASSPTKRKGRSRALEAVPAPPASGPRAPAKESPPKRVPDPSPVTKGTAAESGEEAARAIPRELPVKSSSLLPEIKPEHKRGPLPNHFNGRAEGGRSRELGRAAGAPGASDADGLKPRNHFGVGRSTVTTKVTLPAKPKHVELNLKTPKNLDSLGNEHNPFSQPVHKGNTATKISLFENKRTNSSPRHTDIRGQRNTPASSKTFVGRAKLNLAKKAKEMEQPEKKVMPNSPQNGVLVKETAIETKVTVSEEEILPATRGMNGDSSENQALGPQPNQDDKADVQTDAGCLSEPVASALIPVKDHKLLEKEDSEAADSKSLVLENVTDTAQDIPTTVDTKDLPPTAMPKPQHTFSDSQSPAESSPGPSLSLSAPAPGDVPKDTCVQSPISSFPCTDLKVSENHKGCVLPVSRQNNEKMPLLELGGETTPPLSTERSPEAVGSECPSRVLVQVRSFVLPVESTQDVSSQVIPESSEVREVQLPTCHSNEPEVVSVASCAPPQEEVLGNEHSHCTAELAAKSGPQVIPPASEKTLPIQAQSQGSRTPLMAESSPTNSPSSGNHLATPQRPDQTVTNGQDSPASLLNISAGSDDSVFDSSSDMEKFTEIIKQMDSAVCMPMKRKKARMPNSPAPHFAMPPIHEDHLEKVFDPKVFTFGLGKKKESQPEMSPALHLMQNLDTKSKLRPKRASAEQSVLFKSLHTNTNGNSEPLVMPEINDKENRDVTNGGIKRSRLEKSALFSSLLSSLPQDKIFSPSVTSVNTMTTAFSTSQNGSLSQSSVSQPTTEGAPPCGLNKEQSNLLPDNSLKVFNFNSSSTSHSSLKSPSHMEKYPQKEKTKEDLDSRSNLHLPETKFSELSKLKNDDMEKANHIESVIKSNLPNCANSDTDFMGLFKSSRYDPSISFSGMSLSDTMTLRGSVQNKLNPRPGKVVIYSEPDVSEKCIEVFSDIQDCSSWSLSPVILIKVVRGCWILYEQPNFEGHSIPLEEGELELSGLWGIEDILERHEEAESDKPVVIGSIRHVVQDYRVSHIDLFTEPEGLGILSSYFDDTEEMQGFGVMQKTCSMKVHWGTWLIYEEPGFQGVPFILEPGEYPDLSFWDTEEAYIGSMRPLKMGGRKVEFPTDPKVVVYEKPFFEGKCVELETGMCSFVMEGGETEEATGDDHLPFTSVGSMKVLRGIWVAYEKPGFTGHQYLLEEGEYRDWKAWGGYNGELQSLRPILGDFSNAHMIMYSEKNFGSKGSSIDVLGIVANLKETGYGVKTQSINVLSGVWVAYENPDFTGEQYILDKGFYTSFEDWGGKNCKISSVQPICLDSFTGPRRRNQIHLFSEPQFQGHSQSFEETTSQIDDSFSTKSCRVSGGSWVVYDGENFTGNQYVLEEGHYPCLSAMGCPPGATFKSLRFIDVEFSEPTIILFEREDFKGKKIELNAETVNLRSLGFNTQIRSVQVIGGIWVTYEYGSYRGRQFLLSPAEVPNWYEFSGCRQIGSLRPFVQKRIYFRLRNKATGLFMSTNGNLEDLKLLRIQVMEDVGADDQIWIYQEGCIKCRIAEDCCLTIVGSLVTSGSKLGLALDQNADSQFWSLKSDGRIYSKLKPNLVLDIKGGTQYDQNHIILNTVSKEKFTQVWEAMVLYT
UniProt Q9NP73: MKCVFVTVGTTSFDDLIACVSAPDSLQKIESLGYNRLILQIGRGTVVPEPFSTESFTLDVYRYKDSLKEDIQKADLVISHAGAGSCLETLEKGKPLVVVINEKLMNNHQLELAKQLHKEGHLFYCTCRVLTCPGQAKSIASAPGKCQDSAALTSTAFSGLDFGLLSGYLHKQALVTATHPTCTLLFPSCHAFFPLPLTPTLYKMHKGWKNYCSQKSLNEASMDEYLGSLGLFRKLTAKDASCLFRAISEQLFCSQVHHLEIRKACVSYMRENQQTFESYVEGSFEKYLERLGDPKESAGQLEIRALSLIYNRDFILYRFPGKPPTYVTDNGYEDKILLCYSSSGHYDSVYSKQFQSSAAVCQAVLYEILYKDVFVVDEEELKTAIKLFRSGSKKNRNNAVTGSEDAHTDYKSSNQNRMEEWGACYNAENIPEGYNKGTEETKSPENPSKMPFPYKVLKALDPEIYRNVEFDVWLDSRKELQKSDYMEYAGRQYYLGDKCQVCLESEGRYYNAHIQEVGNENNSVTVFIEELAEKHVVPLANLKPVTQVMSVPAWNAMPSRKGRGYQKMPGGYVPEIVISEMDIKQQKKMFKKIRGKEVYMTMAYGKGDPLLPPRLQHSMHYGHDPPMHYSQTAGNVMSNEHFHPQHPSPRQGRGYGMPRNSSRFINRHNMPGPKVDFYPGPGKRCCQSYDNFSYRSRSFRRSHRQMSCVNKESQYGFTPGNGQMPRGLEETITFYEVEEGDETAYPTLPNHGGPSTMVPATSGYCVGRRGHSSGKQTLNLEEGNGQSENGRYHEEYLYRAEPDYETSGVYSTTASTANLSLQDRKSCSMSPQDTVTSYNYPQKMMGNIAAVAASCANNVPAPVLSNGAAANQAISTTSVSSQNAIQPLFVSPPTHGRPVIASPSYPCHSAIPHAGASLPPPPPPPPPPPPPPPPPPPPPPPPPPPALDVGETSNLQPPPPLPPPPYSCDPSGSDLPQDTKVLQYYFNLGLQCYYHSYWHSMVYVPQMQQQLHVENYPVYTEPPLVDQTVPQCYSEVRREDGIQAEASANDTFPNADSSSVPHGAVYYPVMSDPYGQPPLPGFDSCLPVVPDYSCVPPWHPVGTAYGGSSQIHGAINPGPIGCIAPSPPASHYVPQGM
UniProt P09211: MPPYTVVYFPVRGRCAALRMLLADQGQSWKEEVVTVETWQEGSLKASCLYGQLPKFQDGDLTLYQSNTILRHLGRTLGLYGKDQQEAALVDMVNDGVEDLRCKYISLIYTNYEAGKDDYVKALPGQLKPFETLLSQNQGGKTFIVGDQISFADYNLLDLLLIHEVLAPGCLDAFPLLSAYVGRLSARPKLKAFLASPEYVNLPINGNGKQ

Compound in one assay: Nc1ncnc2c1ncn2[C@@H]1O[C@H](COP(=O)(O)OP(=O)(O)NP(=O)(O)O)[C@@H](O)[C@H]1O [adenylyl imidodiphosphate]
Briefly: NP40-soluble protein abundance relative to vehicle (solubility fold change) (ratio); higher = more soluble protein in presence of AMP-PNP. The note with it: concentration: 0.1mM. A digest of the protocol:
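Each value is a fold change relative to the detergent-processed vehicle, calculated per replicate from vsn-normalised intensities. Jurkat crude lysate received eight concentrations (0.1 to 10 mM) for 10 min at room temperature and 3 min at 37 °C, then was solubilised in 0.8% NP40 with benzonase (60 min, 4 °C). The ultracentrifuged supernatant was TMT-labelled and run by LC-MS/MS in three independent experiments.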
Consider “A0A087WWH3|Q9NZM4 and related entries (UniProt Q9NZM4)”, for which the NP40-soluble protein abundance was 1.033 ± 0.0084.

For A0A087WXD1|Q96T83 (UniProt Q96T83), the NP40-soluble protein abundance turned out to be 0.98 ± 0.039.

Consider “A0A087X0S7|A0A0B4J2G4|Q15345 and related entries (UniProt Q15345)”, for which the NP40-soluble protein abundance was determined as 0.999 ± 0.017.

In the case of A0A0J9YWL0|Q9Y4K1 (UniProt Q9Y4K1), the NP40-soluble protein abundance worked out at 1.01 ± 0.029.

The same assay, now with this note: concentration: 0.5mM.
For the target “A0A087WWP4|Q96T37 and related entries (UniProt Q96T37)”, the NP40-soluble protein abundance is 1.03 ± 0.011.

Turning to A0A087X176|Q6ZRP7 (UniProt Q6ZRP7), the NP40-soluble protein abundance stood at 1.01 ± 0.017.

For the target “A0A0A0MRT6|B6VEX4 and related entries (UniProt Q8IZP0)”, the NP40-soluble protein abundance was 1.04 ± 0.054.

In the case of “A0A087WYG2|E9PFH7 and related entries (UniProt Q9UPT6)”, the NP40-soluble protein abundance was found to be 0.989 ± 0.0099.

Turning to “A0A087X0C8|O15484 and related entries (UniProt O15484)”, the NP40-soluble protein abundance is 0.997 ± 0.054.

As for “A0A088AWN8|Q9UHQ1 and related entries (UniProt Q9UHQ1)”, the NP40-soluble protein abundance is 1.01 ± 0.048.

In the case of “A0A0A0MT72|Q9BSQ5 and related entries (UniProt Q9BSQ5)”, the NP40-soluble protein abundance worked out at 0.971 ± 0.013.

Turning to A0A0U1RQQ9|Q6P3W7 (UniProt Q6P3W7), the NP40-soluble protein abundance was determined as 1 ± 0.029.

Regarding “A0A0C4DGS0|P56556 and related entries (UniProt P56556)”, the NP40-soluble protein abundance is 1.02 ± 0.048.

MEX3A (UniProt A1L020): the NP40-soluble protein abundance came out at 0.984 ± 0.027.

Take A0A087WZE9 (UniProt Q15651): the NP40-soluble protein abundance amounted to 1.03 ± 0.056.

As to “A0A0A0MSY9|Q92800 and related entries (UniProt Q92800)”, the NP40-soluble protein abundance is 0.988 ± 0.02.

On to “A0A0D9SF53|A0A0D9SFB3|A0A0D9SG12|O00571 (UniProt O00571)”, for which the NP40-soluble protein abundance is 1.01 ± 0.075.

With “A0A140T998|P28062 and related entries (UniProt X5D2R7+Q5JNW7+P28062)”, the NP40-soluble protein abundance came to 1 ± 0.066.

On to “A0A0D9SF44|A0A0R4J2E2|Q9Y3T6 (UniProt Q9Y3T6)”, for which the NP40-soluble protein abundance came to 0.989 ± 0.017.

Take “A0A0U1RQT7|A0A0U1RQY7|Q8IXA3 and related entries (UniProt Q9HCP0)”: the NP40-soluble protein abundance was 1.04 ± 0.042.

Regarding “A0A087WZV0|O43314 and related entries (UniProt O43314)”, the NP40-soluble protein abundance amounted to 1.02 ± 0.013.

As for UniProt A0MZ66 and related entries, the NP40-soluble protein abundance turned out to be 1 ± 0.041.

As for “A0A087WZ32|A0A087X038|A8K727 and related entries (UniProt Q9HB19)”, the NP40-soluble protein abundance worked out at 0.984 ± 0.044.

As to “A0A087X1N3|O75818 and related entries (UniProt O75818)”, the NP40-soluble protein abundance was 0.978 ± 0.063.

As to “A0A0A0MSJ9|Q15283 and related entries (UniProt Q15283)”, the NP40-soluble protein abundance was 0.994 ± 0.037.

Turning to “A0A096LP10|Q9NP73-2|Q9NP73 (UniProt Q9NP73)”, the NP40-soluble protein abundance came out at 1.02 ± 0.019.

A0A0A0MR51|O60427 (UniProt O60427): the NP40-soluble protein abundance was determined as 1.01 ± 0.05.

Consider “A0A0A0MTP3|Q99550 and related entries (UniProt Q99550)”, for which the NP40-soluble protein abundance came out at 0.96 ± 0.047.

Take “A0A0A0MRB7|P15923-2|X6REB3 (UniProt P15923)”: the NP40-soluble protein abundance stood at 0.985 ± 0.047.

As to A0A0C4DGZ1|Q8N5P1 (UniProt Q8N5P1), the NP40-soluble protein abundance stood at 1.01 ± 0.097.

As to A0A087WZX2|O95139 (UniProt O95139), the NP40-soluble protein abundance worked out at 1.04 ± 0.083.

In the case of A0A087X0Q9|Q9BVL4 (UniProt Q9BVL4), the NP40-soluble protein abundance was 1.03 ± 0.029.

Consider A0A0C4DGC9|Q8TDR2 (UniProt Q8TDR2), for which the NP40-soluble protein abundance was determined as 1.02 ± 0.025.

In the case of “A0A0A0MRJ6|C9J0F2 and related entries (UniProt P22061)”, the NP40-soluble protein abundance came out at 1.01 ± 0.028.

In the case of “A0A087WWM4|F8WAN9 and related entries (UniProt Q9P2T1)”, the NP40-soluble protein abundance worked out at 1.04 ± 0.043.

For the target “A0A0A0MQS0|A8MW92 and related entries (UniProt A8MW92)”, the NP40-soluble protein abundance turned out to be 0.977 ± 0.058.

As for A0A087X243|P09211 (UniProt P09211), the NP40-soluble protein abundance is 1 ± 0.056.

For “A0A087WWH3|Q9NZM4 and related entries (UniProt Q9NZM4)”, the NP40-soluble protein abundance is 1.02 ± 0.027.

As for A0A087WXD1|Q96T83 (UniProt Q96T83), the NP40-soluble protein abundance worked out at 0.987 ± 0.039.

On to “A0A087X0S7|A0A0B4J2G4|Q15345 and related entries (UniProt Q15345)”, for which the NP40-soluble protein abundance is 1 ± 0.029.

In the case of A0A0J9YWL0|Q9Y4K1 (UniProt Q9Y4K1), the NP40-soluble protein abundance was 1.01 ± 0.022.

Source of the values: the supplement of paper PMC6411743.
